Structures can show the parent of a compound that is named as a salt. The list shows a part of the results. Repeats in this data set agree poorly, so a single value says little.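 ReNCell VM, a human fetal ventral-midbrain neural progenitor line, was differentiated without mitogens. Blinded raters scored images stained for doublecortin (early neurons) or tyrosine hydroxylase (dopaminergic neurons) against untreated wells (0 = no change). Scores were averaged across repeats and both raters, and compounds averaging 2 or more were selected as hits for retesting.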
How the values were obtained:
[1] = tested on: ReNCell VM; assay: neuronal differentiation score (DCX+ cell fraction vs untreated, manual image score) (score (-3 to 3)); higher = more neuronal differentiation; details: 2 uM, 2 weeks
[2] = tested on: ReNCell VM; assay: dopaminergic neuron differentiation score (TH+ cell fraction vs untreated, manual image score) (score (0 to 3)); higher = more TH+ dopaminergic neuron differentiation; details: 2 uM, 4 weeks, BDNF 10 ng/ml + GDNF 10 ng/ml

Structure (SMILES): C[C@](N)(Cc1ccc(O)cc1)C(=O)O [alpha-METHYL-L-TYROSINE]
- neuronal differentiation score ([1]; library: Spectrum): inactive: 0
- dopaminergic neuron differentiation score ([2]; library: Spectrum): inactive: 0

Structure (SMILES): O=c1cc(-c2ccccc2)oc2cc(O)cc(O)c12
- neuronal differentiation score ([1]; library: Spectrum): inactive: -1
- dopaminergic neuron differentiation score ([2]; library: Spectrum): inactive: 0

Structure (SMILES): CC(COc1ccc(/C=C/c2ccccc2)cc1)[N+](C)(C)C (configuration not stated)
- neuronal differentiation score ([1]; library: LOPAC): inactive: 0
- dopaminergic neuron differentiation score ([2]; library: LOPAC): inactive: 0

Structure (SMILES): COC1=CC(=O)C[C@@H](C)[C@]12Oc1c(Cl)c(OC)cc(OC)c1C2=O
- neuronal differentiation score ([1]; library: Spectrum): inactive: 0
- dopaminergic neuron differentiation score ([2]; library: Spectrum): inactive: 0

Structure (SMILES): Cc1ccc(C(=O)Nc2ccc(S(=O)(=O)O)c3cc(S(=O)(=O)O)cc(S(=O)(=O)O)c23)cc1NC(=O)c1cccc(NC(=O)Nc2cccc(C(=O)Nc3cc(C(=O)Nc4ccc(S(=O)(=O)O)c5cc(S(=O)(=O)O)cc(S(=O)(=O)O)c45)ccc3C)c2)c1 [Suramin sodium salt]
- neuronal differentiation score ([1]; library: LOPAC): inactive: 0
- dopaminergic neuron differentiation score ([2]; library: LOPAC): inactive: 0

Structure (SMILES): C[C@]12CCC(=O)C=C1CC[C@@H]1[C@@H]2[C@@H](O)C[C@@]2(C)[C@H]1CC[C@]2(O)C(=O)CO [Hydrocortisone base]
- neuronal differentiation score ([1]; library: Prestwick): inactive: 0
- dopaminergic neuron differentiation score ([2]; library: Prestwick): inactive: 0

Structure (SMILES): CC(C)Cn1c(=O)n(C)c(=O)c2nc[nH]c21
- neuronal differentiation score ([1]; library: Spectrum): inactive: 0
- dopaminergic neuron differentiation score ([2]; library: Spectrum): inactive: 0

Structure (SMILES): COc1cc2ccc(=O)oc2cc1O [Scopoletin]
- neuronal differentiation score ([1]; library: Phytochemical): inactive: 0
- dopaminergic neuron differentiation score ([2]; library: Phytochemical): inactive: 0

Structure (SMILES): COc1cc2ccc(=O)oc2c(OC)c1OC
- neuronal differentiation score ([1]; library: Spectrum): inactive: 0
- dopaminergic neuron differentiation score ([2]; library: Spectrum): inactive: 0

Structure (SMILES): O=c1cccc2ccc(O)c(O)c2c1O
- neuronal differentiation score ([1]; library: Spectrum): inactive: 0
- dopaminergic neuron differentiation score ([2]; library: Spectrum): inactive: 0

Structure (SMILES): CCCCOc1cc(C(=O)OCCN(CC)CC)ccc1N
- neuronal differentiation score ([1]; library: Spectrum): inactive: 0
- dopaminergic neuron differentiation score ([2]; library: Spectrum): active: 3

Structure (SMILES): CCCCNc1ccc(C(=O)OCCN(C)C)cc1 [Tetracaine hydrochloride]
- neuronal differentiation score ([1]; library: LOPAC): inactive: 0
- dopaminergic neuron differentiation score ([2]; library: LOPAC): inactive: 0

Structure (SMILES): NS(=O)(=O)C#Cc1ccccc1 [Pifithrin-mu]
- neuronal differentiation score ([1]; library: LOPAC): inactive: 0
- dopaminergic neuron differentiation score ([2]; library: LOPAC): inactive: 0

Structure (SMILES): Oc1c(Cl)cc(Cl)c2cccnc12
- neuronal differentiation score ([1]; library: Spectrum): inactive: 0
- dopaminergic neuron differentiation score ([2]; library: Spectrum): inactive: 0

Structure (SMILES): CC(=O)N[C@@H](C=O)[C@@H](O)[C@H](O)[C@H](O)CO
- neuronal differentiation score ([1]; library: Spectrum): inactive: 0
- dopaminergic neuron differentiation score ([2]; library: Spectrum): inactive: 0

Structure (SMILES): C[C@H]1O[C@@H](n2cc(F)c(=O)[nH]c2=O)[C@H](O)[C@@H]1O
- neuronal differentiation score ([1]; library: Spectrum): inactive: 0
- dopaminergic neuron differentiation score ([2]; library: Spectrum): inactive: 1

Structure (SMILES): CC(C)(C)NC(=O)[C@H]1CC[C@H]2[C@@H]3CC[C@H]4NC(=O)C=C[C@]4(C)[C@H]3CC[C@]12C
- neuronal differentiation score ([1]; library: Spectrum): inactive: 0
- dopaminergic neuron differentiation score ([2]; library: Spectrum): inactive: 0

Structure (SMILES): CC(=O)N(O)[C@@H]1c2cc(C#N)ccc2OC(C)(C)[C@H]1O
- neuronal differentiation score ([1]; library: Tocriscreen): inactive: 0
- dopaminergic neuron differentiation score ([2]; library: Tocriscreen): inactive: 0

Structure (SMILES): O=C(Nc1ccncc1)c1cc([N+](=O)[O-])ccc1Cl
- neuronal differentiation score ([1]; library: Tocriscreen): inactive: 0
- dopaminergic neuron differentiation score ([2]; library: Tocriscreen): inactive: 0

Structure (SMILES): C[N+](C)(C)CCOC(N)=O
- neuronal differentiation score ([1]; library: Spectrum): inactive: 0
- dopaminergic neuron differentiation score ([2]; library: Spectrum): inactive: 0

Structure (SMILES): CCCC(C(=O)OCCN(CC)CC)(c1ccccc1)c1ccccc1 [Proadifen hydrochloride]
- neuronal differentiation score ([1]; library: Prestwick): inactive: 0
- dopaminergic neuron differentiation score ([2]; library: Prestwick): inactive: 0

Structure (SMILES): CCNC(=O)/C=C/c1cccc(Br)c1
- neuronal differentiation score ([1]; library: Spectrum): inactive: 0
- dopaminergic neuron differentiation score ([2]; library: Spectrum): inactive: 0

Structure (SMILES): CC(C)C[C@H](NC(=O)[C@H]1O[C@@H]1C(=O)O)C(=O)NCCCCN=C(N)N
- neuronal differentiation score ([1]; library: LOPAC): inactive: 0
- dopaminergic neuron differentiation score ([2]; library: LOPAC): inactive: 0

Structure (SMILES): Clc1ccc(COC(Cn2ccnc2)c2ccc(Cl)cc2Cl)cc1 (configuration not stated) [Econazole nitrate]
- neuronal differentiation score ([1]; library: Prestwick): inactive: 0
- dopaminergic neuron differentiation score ([2]; library: Prestwick): inactive: 0

Structure (SMILES): S=C(S)N1CCCC1 [Pyrrolidinedithiocarbamate ammonium]
- neuronal differentiation score ([1]; library: Tocriscreen): inactive: 0
- dopaminergic neuron differentiation score ([2]; library: Tocriscreen): inactive: 0

Structure (SMILES): CC1(C)S[C@@H]2[C@H](NC(=O)Cc3ccccc3)C(=O)N2[C@H]1C(=O)O [Benzathine benzylpenicillin]
- neuronal differentiation score ([1]; library: Prestwick): inactive: 0
- dopaminergic neuron differentiation score ([2]; library: Prestwick): inactive: 0

Structure (SMILES): CC[C@H]1OC(=O)[C@H](C)[C@@H](O[C@H]2C[C@@](C)(OC)[C@@H](O)[C@H](C)O2)[C@H](C)[C@@H](O[C@@H]2O[C@H](C)C[C@H](N(C)C)[C@H]2O)[C@](C)(OC)C[C@@H](C)C(=O)[C@H](C)[C@@H](O)[C@]1(C)O [Clarithromycin]
- neuronal differentiation score ([1]; library: Prestwick): inactive: 0
- dopaminergic neuron differentiation score ([2]; library: Prestwick): inactive: 0

Structure (SMILES): O=C(O)[C@H](O)[C@@](O)(Cc1ccc(O)cc1)C(=O)O
- neuronal differentiation score ([1]; library: Spectrum): inactive: 0
- dopaminergic neuron differentiation score ([2]; library: Spectrum): inactive: 0

Structure (SMILES): Oc1ccc(C2CNCCc3c2cc(O)c(O)c3Cl)cc1 (configuration not stated) [Fenoldopam hydrochloride]
- neuronal differentiation score ([1]; library: Tocriscreen): inactive: 0
- dopaminergic neuron differentiation score ([2]; library: Tocriscreen): inactive: 0

Structure (SMILES): CC(C)C[C@H](NC(=O)[C@@H](O)[C@H](N)Cc1ccccc1)C(=O)O [Bestatin hydrochloride]
- neuronal differentiation score ([1]; library: LOPAC): inactive: 0
- dopaminergic neuron differentiation score ([2]; library: LOPAC): inactive: 0

Structure (SMILES): NOCC(=O)O [O-(Carboxymethyl)hydroxylamine hemihydrochloride]
- neuronal differentiation score ([1]; library: LOPAC): inactive: 0
- dopaminergic neuron differentiation score ([2]; library: LOPAC): inactive: 0

— the supplement of paper PMC4635364
